From article PMC11672801 (Antibiotics, 2024)
For part of these data: HELM strings list residues between dots; [ac] is acetyl, [am] amide, other brackets name non-standard units. Where a SMILES comes first, the peptide text is derived from it. [ ]: non-standard residue; d: D form. The star is where a group is joined. Levofloxacinoyl = C[C@H]1COc2c(N3CCN(C)CC3)c(F)cc3c(=O)c(C(=O)*)cn1c23; βAla = NCCC(=O)O

Columns and labels:
[1] = system: micro-organisms; assay: Selectivity index: HC50 divided by lowest MIC on micro-organisms; conditions: for SI Based on MIC: HC50 / lowest MIC
[2] = system: cancer cells (MCF-7, HeLa); design: species or system human; conditions: HC50 / lowest IC50
Description: The selectivity of action of the analogs against micro-organisms or cancer cells was further evaluated through calculation of their selectivity indexes (SIs). SIs were determined using either the MIC on micro-organisms or IC50 on cancer cells compared to HC50 values, and they are reported in Table 6.

[3] = general procedure: Fmoc solid-phase peptide synthesis; Rink amide resin (1 g, 0.6 mmol/g); DIC/Oxyma pure; conditions: whole synthesis, overall, scale of the general procedure 1 g resin

Molecule	SI Based on MIC [1]	SI Based on IC50 [2]	isolated yield [3]	fold increase of SI on micro-organisms versus parent analog 2 [1]
CC[C@H](C)[C@H](NC(=O)[C@@H](C)NC(=O)[C@H](CO)NC(=O)[C@H](CC(C)C)NC(=O)[C@@H](N)Cc1ccccc1)C(=O)N[C@H](C(=O)NCC(=O)N[C@@H](CCSC)C(=O)N[C@@H](CC(C)C)C(=O)NCC(=O)N[C@@H](CCCCN)C(=O)N[C@@H](CC(C)C)C(=O)N[C@@H](Cc1ccccc1)C(N)=O)C(C)C [NST-2 (1), H-Phe^1-Leu^2-Ser^3-D-Ala^4-Ile^5-Val^6-Gly^7-Met^8-Leu^9-Gly^10-Lys^11-Leu^12-Phe^13-NH2] (H-FLS[dA]IVGMLGKLF-NH2)	14.4	5.0		
CC[C@H](C)[C@H](NC(=O)[C@@H](NC(=O)CNC(=O)[C@H](CCSC)NC(=O)[C@H](CC(C)C)NC(=O)[C@H](CCCCN)NC(=O)[C@H](CCCCN)NC(=O)[C@H](CC(C)C)NC(=O)[C@H](Cc1ccccc1)NC(=O)CCNC(=O)c1cn2c3c(c(N4CCN(C)CC4)c(F)cc3c1=O)OC[C@@H]2C)C(C)C)C(=O)N[C@H](C)C(=O)N[C@@H](CO)C(=O)N[C@@H](CC(C)C)C(=O)N[C@@H](Cc1ccccc1)C(N)=O [RLFP-4 (8), LF-β-Ala-Phe^1-Leu^2-Lys^3-Lys^4-Leu^5-Met^6-Gly^7-Val^8-Ile^9-D-Ala^10-Ser^11-Leu^12-Phe^13-NH2] ({Levofloxacinoyl-βAla}-FLKKLMGVI[dA]SLF-NH2)	2.8	0.2		
PEPTIDE1{F.L.K.G.L.M.G.V.I.[dA].S.L.F.K.[am]}|PEPTIDE2{[LF]}$PEPTIDE1,PEPTIDE2,14:R3-1:R2$$$V2.0			22.5%	
PEPTIDE1{F.L.K.G.L.M.G.V.I.[dA].S.L.F.K.[am]}$$$$V2.0			7.6%	
CC[C@H](C)[C@H](NC(=O)[C@@H](NC(=O)CNC(=O)[C@H](CCSC)NC(=O)[C@H](CC(C)C)NC(=O)CNC(=O)[C@H](CCCCN)NC(=O)[C@H](CC(C)C)NC(=O)[C@@H](N)Cc1ccccc1)C(C)C)C(=O)N[C@H](C)C(=O)N[C@@H](CO)C(=O)N[C@@H](CC(C)C)C(=O)N[C@@H](Cc1ccccc1)C(=O)N[C@@H](CCCCNC(=O)c1cn2c3c(c(N4CCN(C)CC4)c(F)cc3c1=O)OC[C@@H]2C)C(N)=O [RLFP-1 (4), H-Phe^1-Leu^2-Lys^3-Gly^4-Leu^5-Met^6-Gly^7-Val^8-Ile^9-D-Ala^10-Ser^11-Leu^12-Phe^13-Lys^14(LF)-NH2] (H-FLKGLMGVI[dA]SLFK(Levofloxacinoyl)-NH2)	3.9	<0.9		
PEPTIDE1{F.L.K.G.L.M.G.V.I.[dA].S.L.F.[am]}$$$$V2.0			24.63%	
CC[C@H](C)[C@H](NC(=O)[C@@H](NC(=O)CNC(=O)[C@H](CCSC)NC(=O)[C@H](CC(C)C)NC(=O)CNC(=O)[C@H](CCCCN)NC(=O)[C@H](CC(C)C)NC(=O)[C@H](Cc1ccccc1)NC(=O)CCNC(=O)c1cn2c3c(c(N4CCN(C)CC4)c(F)cc3c1=O)OC[C@@H]2C)C(C)C)C(=O)N[C@H](C)C(=O)N[C@@H](CO)C(=O)N[C@@H](CC(C)C)C(=O)N[C@@H](Cc1ccccc1)C(=O)N[C@@H](CCCCN)C(N)=O [RLFP-3 (6), LF-β-Ala-Phe^1-Leu^2-Lys^3-Gly^4-Leu^5-Met^6-Gly^7-Val^8-Ile^9-D-Ala^10-Ser^11-Leu^12-Phe^13-Lys^14-NH2] ({Levofloxacinoyl-βAla}-FLKGLMGVI[dA]SLFK-NH2)	4.2	0.5		
PEPTIDE1{F.L.K.G.L.M.G.V.I.[dA].S.L.F.K.[am]}|PEPTIDE2{[LF]}$PEPTIDE1,PEPTIDE2,3:R3-1:R2$$$V2.0			17%	
LF-β-Ala-Phe^1-Leu^2-Lys^3-Lys^4-Leu^5-Met^6-Gly^7-Val^8-Ile^9-D-Ala^10-Ser^11-Leu^12-Phe^13-NH2			31%	
CC[C@H](C)[C@H](NC(=O)[C@@H](NC(=O)CNC(=O)[C@H](CCSC)NC(=O)[C@H](CC(C)C)NC(=O)[C@H](CCCCN)NC(=O)[C@H](CCCCN)NC(=O)[C@H](CC(C)C)NC(=O)[C@@H](N)Cc1ccccc1)C(C)C)C(=O)N[C@H](C)C(=O)N[C@@H](CO)C(=O)N[C@@H](CC(C)C)C(=O)N[C@@H](Cc1ccccc1)C(N)=O [RSP-4 (7), H-Phe^1-Leu^2-Lys^3-Lys^4-Leu^5-Met^6-Gly^7-Val^8-Ile^9-D-Ala^10-Ser^11-Leu^12-Phe^13-NH2] (H-FLKKLMGVI[dA]SLF-NH2)	>8.0	>2.5		
LF-β-Ala-Phe^1-Leu^2-Lys^3-Gly^4-Leu^5-Met^6-Gly^7-Val^8-Ile^9-D-Ala^10-Ser^11-Leu^12-Phe^13-Lys^14-NH2			26%	
CC[C@H](C)[C@H](NC(=O)[C@@H](NC(=O)CNC(=O)[C@H](CCSC)NC(=O)[C@H](CC(C)C)NC(=O)CNC(=O)[C@H](CCCCNC(=O)c1cn2c3c(c(N4CCN(C)CC4)c(F)cc3c1=O)OC[C@@H]2C)NC(=O)[C@H](CC(C)C)NC(=O)[C@@H](N)Cc1ccccc1)C(C)C)C(=O)N[C@H](C)C(=O)N[C@@H](CO)C(=O)N[C@@H](CC(C)C)C(=O)N[C@@H](Cc1ccccc1)C(=O)N[C@@H](CCCCN)C(N)=O [RLFP-2 (5), H-Phe^1-Leu^2-Lys^3(LF)-Gly^4-Leu^5-Met^6-Gly^7-Val^8-Ile^9-D-Ala^10-Ser^11-Leu^12-Phe^13-Lys^14-NH2] (H-FLK(Levofloxacinoyl)GLMGVI[dA]SLFK-NH2)	0.5	<0.2		
CC[C@H](C)[C@H](NC(=O)[C@@H](NC(=O)CNC(=O)[C@H](CCSC)NC(=O)[C@H](CC(C)C)NC(=O)CNC(=O)[C@H](CCCCN)NC(=O)[C@H](CC(C)C)NC(=O)[C@@H](N)Cc1ccccc1)C(C)C)C(=O)N[C@H](C)C(=O)N[C@@H](CO)C(=O)N[C@@H](CC(C)C)C(=O)N[C@@H](Cc1ccccc1)C(=O)N[C@@H](CCCCN)C(N)=O [RSP-1 (3), H-Phe^1-Leu^2-Lys^3-Gly^4-Leu^5-Met^6-Gly^7-Val^8-Ile^9-D-Ala^10-Ser^11-Leu^12-Phe^13-Lys^14-NH2] (H-FLKGLMGVI[dA]SLFK-NH2)	32.6	1.5		3.7 fold
PEPTIDE1{[LF].[bAla].F.L.K.K.L.M.G.V.I.[dA].S.L.F.[am]}$$$$V2.0			25%	
PEPTIDE1{F.L.S.[dA].I.V.G.M.L.G.K.L.F.[am]}$$$$V2.0			68.6%	
CC[C@H](C)[C@H](NC(=O)[C@@H](NC(=O)CNC(=O)[C@H](CCSC)NC(=O)[C@H](CC(C)C)NC(=O)CNC(=O)[C@H](CCCCN)NC(=O)[C@H](CC(C)C)NC(=O)[C@@H](N)Cc1ccccc1)C(C)C)C(=O)N[C@H](C)C(=O)N[C@@H](CO)C(=O)N[C@@H](CC(C)C)C(=O)N[C@@H](Cc1ccccc1)C(N)=O [RNST-2 (2), H-Phe^1-Leu^2-Lys^3-Gly^4-Leu^5-Met^6-Gly^7-Val^8-Ile^9-D-Ala^10-Ser^11-Leu^12-Phe^13-NH2] (H-FLKGLMGVI[dA]SLF-NH2)	8.8	0.2		
PEPTIDE1{F.L.K.K.L.M.G.V.I.[dA].S.L.F.[am]}$$$$V2.0			28%	
PEPTIDE1{[LF].[bAla].F.L.K.G.L.M.G.V.I.[dA].S.L.F.K.[am]}$$$$V2.0			21%	
